Results on eight substances are retold here after paper doi:10.1101/2024.10.12.24315363.

Protein sequences, listed by entry. Tags and fused reporters are not part of them.
UniProt P47756: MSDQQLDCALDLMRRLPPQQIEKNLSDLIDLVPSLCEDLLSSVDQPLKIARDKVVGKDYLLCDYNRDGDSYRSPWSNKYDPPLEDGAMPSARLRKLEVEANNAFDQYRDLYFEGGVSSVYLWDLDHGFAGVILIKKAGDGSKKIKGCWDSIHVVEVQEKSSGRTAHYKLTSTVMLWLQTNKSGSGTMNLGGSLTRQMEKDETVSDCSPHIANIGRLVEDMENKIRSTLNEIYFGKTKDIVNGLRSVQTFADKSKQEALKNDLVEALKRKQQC
UniProt Q16643: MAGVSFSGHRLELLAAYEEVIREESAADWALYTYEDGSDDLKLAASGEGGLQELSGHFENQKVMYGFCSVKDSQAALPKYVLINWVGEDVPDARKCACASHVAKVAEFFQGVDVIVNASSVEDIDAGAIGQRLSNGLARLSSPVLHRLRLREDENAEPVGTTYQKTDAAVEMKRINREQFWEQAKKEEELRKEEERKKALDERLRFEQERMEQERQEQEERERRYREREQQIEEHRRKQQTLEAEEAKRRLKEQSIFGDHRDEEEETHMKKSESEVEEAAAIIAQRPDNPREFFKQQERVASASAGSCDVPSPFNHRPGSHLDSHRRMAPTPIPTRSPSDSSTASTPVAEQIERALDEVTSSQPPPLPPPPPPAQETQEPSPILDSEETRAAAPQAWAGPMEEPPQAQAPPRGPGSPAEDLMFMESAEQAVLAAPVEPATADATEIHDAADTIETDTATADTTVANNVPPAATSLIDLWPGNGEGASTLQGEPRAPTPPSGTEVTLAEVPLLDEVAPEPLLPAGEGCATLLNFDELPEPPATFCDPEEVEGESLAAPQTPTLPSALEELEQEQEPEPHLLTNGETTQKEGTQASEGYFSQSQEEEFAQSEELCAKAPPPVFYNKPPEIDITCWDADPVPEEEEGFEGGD
UniProt P35579: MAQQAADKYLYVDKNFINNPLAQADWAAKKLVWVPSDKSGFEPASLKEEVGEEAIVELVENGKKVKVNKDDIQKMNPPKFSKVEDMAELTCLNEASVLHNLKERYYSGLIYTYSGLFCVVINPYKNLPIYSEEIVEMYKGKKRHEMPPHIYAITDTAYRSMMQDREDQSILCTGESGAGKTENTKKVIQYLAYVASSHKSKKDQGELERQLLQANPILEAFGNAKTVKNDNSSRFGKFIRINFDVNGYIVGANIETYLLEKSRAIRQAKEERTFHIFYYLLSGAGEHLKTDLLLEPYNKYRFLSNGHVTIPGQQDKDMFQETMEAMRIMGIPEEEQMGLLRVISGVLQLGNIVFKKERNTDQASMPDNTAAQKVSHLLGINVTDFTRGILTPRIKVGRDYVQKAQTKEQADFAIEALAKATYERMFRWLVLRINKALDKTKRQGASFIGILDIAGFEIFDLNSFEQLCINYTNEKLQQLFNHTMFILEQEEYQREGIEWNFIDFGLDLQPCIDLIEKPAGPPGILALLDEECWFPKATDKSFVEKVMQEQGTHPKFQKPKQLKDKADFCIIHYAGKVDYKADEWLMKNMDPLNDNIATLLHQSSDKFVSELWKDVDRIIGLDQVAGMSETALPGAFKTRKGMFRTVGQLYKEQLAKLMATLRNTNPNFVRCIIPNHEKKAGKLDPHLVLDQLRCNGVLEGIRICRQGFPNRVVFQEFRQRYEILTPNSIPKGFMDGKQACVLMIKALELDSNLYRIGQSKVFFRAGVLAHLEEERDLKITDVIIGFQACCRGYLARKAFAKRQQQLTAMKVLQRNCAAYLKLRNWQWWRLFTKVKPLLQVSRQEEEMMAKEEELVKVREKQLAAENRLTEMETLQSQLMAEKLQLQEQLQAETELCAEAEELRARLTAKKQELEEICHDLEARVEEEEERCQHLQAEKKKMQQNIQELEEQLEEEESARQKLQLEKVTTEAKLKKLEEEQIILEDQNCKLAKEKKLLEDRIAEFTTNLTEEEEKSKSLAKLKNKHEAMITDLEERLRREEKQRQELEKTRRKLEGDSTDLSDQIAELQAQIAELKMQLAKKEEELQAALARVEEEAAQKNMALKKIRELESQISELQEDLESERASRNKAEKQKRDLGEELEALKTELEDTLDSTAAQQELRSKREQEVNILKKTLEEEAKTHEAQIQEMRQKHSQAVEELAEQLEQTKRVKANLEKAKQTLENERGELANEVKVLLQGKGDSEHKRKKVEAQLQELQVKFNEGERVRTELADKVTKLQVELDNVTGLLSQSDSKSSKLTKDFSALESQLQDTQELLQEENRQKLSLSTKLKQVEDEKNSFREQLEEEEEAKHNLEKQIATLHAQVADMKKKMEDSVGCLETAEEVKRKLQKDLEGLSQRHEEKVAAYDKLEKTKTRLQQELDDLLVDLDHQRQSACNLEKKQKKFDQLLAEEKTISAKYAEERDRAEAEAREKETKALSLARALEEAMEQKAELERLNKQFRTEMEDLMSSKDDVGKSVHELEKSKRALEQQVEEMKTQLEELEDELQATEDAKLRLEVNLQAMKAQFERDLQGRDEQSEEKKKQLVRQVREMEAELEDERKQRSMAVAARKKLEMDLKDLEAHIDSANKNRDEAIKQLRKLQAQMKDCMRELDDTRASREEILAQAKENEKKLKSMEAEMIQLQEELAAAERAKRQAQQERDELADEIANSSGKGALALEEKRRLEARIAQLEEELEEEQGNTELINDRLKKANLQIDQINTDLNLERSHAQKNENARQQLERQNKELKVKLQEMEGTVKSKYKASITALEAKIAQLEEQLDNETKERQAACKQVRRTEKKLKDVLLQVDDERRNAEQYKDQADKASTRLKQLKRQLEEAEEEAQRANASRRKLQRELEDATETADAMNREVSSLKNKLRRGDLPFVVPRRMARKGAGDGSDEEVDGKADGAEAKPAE
UniProt P35580: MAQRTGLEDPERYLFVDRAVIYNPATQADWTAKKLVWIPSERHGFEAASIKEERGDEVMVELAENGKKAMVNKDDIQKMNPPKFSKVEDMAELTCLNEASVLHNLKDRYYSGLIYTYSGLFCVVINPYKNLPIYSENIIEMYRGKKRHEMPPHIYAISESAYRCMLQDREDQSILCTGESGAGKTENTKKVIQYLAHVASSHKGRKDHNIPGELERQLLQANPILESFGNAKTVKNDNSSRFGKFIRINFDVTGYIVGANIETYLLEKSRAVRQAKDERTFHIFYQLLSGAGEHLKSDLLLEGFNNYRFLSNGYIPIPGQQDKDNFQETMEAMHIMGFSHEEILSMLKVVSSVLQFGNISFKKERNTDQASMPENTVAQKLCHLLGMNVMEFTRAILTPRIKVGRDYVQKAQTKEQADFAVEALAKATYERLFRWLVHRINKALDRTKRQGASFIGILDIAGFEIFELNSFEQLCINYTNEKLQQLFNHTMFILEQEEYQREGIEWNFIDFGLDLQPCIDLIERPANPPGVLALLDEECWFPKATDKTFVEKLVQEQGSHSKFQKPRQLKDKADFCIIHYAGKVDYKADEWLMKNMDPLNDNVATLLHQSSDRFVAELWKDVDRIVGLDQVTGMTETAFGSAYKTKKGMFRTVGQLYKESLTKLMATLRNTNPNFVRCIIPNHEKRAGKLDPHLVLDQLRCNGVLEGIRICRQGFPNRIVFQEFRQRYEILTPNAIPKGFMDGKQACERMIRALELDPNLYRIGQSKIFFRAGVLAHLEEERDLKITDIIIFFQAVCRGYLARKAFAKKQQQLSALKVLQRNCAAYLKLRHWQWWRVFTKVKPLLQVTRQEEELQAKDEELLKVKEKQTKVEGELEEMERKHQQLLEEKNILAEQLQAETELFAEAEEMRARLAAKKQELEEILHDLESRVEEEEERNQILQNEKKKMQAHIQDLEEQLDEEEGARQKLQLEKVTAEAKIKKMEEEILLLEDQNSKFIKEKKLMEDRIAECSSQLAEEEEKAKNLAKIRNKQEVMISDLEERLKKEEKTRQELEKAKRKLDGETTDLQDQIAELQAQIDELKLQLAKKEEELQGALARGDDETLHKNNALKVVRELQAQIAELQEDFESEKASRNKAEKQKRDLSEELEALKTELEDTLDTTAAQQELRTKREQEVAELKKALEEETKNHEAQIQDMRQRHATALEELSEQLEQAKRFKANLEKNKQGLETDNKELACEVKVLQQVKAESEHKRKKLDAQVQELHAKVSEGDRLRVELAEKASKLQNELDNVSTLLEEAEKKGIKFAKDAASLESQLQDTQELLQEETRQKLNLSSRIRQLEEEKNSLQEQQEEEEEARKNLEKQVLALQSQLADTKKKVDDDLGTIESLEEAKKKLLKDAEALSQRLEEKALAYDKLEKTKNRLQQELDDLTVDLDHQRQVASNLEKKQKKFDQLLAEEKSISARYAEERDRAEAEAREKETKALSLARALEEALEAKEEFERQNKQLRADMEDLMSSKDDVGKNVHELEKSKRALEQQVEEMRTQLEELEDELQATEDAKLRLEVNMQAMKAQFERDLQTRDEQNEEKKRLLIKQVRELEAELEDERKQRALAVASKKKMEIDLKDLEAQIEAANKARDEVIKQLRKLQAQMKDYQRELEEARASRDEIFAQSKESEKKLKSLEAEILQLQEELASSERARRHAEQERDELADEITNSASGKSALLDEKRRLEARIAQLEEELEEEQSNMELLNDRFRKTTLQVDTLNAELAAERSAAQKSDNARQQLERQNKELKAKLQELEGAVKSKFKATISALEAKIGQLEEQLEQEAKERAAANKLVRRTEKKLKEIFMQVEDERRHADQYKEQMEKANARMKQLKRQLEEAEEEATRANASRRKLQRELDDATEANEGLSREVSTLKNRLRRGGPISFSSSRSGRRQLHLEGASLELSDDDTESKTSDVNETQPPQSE
UniProt P60660: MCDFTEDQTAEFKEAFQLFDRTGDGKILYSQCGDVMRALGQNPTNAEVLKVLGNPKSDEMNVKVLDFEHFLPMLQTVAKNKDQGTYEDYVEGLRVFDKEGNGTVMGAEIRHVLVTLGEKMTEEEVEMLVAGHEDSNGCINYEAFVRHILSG
UniProt P14649: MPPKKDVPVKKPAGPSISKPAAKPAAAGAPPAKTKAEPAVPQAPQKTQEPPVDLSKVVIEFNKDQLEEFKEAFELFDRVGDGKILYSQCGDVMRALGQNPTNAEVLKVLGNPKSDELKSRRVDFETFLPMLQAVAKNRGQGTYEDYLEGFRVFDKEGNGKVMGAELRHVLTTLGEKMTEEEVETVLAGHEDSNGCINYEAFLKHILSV
UniProt O14950: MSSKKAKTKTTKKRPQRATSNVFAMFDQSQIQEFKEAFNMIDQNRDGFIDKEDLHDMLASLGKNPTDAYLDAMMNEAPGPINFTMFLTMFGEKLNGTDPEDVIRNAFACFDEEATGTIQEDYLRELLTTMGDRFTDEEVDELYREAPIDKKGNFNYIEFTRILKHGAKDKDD
UniProt P09493: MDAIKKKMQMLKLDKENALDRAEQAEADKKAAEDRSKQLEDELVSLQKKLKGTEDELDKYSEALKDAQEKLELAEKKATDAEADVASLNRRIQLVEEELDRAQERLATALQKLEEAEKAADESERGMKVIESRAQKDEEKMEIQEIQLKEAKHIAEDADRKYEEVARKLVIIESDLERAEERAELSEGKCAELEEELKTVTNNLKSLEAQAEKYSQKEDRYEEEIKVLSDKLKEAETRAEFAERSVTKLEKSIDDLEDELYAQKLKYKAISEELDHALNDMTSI

The assay has as its target T1, IVNS1ABP, wild type (endogenous in isogenic control NPCs) (human (endogenous in iPSC-derived NPCs)) (UniProt Q9Y6Y0).
T1 sequence: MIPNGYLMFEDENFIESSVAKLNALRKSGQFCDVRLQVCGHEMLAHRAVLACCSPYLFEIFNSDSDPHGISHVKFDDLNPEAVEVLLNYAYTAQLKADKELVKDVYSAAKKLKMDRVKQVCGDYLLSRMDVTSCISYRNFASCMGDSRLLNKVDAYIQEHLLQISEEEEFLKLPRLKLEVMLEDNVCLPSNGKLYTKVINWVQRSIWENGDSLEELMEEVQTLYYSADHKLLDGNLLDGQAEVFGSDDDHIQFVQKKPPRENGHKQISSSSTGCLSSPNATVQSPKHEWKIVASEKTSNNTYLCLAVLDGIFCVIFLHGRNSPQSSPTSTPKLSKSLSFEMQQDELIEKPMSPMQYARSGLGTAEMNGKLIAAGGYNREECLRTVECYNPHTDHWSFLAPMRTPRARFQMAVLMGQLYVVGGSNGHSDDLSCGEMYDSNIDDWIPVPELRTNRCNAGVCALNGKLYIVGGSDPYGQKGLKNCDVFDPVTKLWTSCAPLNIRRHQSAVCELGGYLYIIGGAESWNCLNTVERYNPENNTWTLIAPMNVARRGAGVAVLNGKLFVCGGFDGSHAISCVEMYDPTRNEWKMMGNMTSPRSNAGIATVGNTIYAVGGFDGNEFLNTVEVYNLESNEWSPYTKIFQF
Kind of assay: affinity purification with mass spectrometry.

No constants are given. Whether binding was seen depends on the method and setting. In cells and extracts the contact can be indirect. These calls come from enrichment with a bait or labelling near it, and not all partners need be listed.

For the substance CAPZB (from UniProt P47756 1-272), the binding result is “binds”.

Turning to “DBN1 (Drebrin1) (from UniProt Q16643 1-649)”, the binding entry is given as “binds”. In the case of MYH9 (from UniProt P35579 1-1960) it was “binds”.

With MYH10 (from UniProt P35580 1-1976), the binding entry is “binds”. In the case of MYL6 (from UniProt P60660 1-151) it was “binds”; in that of MYL6B (from UniProt P14649 1-208), “binds”. For MYL12B (from UniProt O14950 1-172) the value was “binds”; for TPM1 (from UniProt P09493 1-284), “binds”.
